Source: publication PMC12561301
These are yes or no findings as the source states them, for the method shown. In cells and extracts the contact can be indirect. Some entries that bind do so weakly or less than the wild type.

The chains behind the UniProt entries cited, without tags or fusion partners.
UniProt P52631: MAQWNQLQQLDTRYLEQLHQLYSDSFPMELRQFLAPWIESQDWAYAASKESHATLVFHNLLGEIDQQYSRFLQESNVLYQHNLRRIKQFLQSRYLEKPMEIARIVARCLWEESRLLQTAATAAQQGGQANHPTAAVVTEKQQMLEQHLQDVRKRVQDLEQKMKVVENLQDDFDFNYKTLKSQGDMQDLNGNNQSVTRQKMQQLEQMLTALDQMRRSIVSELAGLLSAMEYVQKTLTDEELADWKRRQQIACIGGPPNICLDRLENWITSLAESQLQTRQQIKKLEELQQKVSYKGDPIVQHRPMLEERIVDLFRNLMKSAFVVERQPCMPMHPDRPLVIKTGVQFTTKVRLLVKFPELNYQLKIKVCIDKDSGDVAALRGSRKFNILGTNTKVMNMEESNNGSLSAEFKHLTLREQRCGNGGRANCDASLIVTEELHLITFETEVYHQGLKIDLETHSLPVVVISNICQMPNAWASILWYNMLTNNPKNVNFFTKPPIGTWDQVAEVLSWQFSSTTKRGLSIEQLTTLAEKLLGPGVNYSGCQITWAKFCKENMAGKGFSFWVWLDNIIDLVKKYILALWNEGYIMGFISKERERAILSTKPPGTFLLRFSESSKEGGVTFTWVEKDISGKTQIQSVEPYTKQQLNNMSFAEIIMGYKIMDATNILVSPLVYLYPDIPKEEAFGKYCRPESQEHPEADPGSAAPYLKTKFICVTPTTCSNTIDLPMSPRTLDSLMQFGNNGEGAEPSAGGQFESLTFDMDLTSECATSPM
UniProt P40763: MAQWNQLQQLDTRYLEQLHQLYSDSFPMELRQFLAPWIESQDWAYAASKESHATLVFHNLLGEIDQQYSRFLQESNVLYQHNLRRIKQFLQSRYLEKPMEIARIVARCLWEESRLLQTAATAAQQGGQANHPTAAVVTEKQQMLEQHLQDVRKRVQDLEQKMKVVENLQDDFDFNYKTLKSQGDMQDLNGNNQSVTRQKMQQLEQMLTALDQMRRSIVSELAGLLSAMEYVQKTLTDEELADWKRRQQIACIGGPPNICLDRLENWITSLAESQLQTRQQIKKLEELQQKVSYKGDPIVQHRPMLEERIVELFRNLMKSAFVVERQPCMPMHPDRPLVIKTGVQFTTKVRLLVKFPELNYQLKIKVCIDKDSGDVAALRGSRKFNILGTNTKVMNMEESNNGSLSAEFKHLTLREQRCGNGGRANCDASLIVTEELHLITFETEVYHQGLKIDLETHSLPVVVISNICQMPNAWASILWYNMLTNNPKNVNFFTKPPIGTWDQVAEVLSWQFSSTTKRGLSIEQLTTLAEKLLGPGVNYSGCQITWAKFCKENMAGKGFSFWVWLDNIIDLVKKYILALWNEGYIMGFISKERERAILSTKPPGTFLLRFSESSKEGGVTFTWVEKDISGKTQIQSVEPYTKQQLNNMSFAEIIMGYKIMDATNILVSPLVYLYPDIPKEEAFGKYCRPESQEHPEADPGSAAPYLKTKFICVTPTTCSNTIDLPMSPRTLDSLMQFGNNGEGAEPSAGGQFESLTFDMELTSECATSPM
UniProt G3V6X8: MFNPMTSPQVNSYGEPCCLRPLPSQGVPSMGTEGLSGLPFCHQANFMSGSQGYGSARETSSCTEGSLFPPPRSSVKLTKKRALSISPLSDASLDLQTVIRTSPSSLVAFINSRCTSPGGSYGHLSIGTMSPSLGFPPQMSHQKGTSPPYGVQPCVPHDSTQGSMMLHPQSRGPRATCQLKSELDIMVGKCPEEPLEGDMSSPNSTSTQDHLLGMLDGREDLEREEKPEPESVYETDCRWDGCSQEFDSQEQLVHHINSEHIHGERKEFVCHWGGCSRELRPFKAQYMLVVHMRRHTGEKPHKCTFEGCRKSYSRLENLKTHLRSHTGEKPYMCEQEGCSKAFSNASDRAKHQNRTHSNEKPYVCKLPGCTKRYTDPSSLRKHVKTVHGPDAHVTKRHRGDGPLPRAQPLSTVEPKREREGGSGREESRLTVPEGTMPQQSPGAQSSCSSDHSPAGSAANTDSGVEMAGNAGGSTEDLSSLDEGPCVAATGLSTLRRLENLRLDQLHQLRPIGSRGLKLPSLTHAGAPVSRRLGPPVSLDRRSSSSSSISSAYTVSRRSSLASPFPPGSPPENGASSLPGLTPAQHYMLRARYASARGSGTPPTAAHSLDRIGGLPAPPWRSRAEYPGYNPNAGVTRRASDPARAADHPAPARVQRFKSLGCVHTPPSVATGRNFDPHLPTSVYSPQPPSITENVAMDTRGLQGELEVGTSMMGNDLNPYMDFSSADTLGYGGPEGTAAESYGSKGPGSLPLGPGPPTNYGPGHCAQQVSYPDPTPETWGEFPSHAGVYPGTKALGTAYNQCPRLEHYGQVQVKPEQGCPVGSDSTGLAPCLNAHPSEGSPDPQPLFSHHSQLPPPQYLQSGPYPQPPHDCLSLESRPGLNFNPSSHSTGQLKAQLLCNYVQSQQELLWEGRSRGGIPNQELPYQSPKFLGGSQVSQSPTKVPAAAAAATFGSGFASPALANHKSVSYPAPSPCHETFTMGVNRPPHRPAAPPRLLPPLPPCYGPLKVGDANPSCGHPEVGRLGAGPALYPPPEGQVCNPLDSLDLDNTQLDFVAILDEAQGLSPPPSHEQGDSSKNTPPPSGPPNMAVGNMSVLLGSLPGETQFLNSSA
UniProt P08151: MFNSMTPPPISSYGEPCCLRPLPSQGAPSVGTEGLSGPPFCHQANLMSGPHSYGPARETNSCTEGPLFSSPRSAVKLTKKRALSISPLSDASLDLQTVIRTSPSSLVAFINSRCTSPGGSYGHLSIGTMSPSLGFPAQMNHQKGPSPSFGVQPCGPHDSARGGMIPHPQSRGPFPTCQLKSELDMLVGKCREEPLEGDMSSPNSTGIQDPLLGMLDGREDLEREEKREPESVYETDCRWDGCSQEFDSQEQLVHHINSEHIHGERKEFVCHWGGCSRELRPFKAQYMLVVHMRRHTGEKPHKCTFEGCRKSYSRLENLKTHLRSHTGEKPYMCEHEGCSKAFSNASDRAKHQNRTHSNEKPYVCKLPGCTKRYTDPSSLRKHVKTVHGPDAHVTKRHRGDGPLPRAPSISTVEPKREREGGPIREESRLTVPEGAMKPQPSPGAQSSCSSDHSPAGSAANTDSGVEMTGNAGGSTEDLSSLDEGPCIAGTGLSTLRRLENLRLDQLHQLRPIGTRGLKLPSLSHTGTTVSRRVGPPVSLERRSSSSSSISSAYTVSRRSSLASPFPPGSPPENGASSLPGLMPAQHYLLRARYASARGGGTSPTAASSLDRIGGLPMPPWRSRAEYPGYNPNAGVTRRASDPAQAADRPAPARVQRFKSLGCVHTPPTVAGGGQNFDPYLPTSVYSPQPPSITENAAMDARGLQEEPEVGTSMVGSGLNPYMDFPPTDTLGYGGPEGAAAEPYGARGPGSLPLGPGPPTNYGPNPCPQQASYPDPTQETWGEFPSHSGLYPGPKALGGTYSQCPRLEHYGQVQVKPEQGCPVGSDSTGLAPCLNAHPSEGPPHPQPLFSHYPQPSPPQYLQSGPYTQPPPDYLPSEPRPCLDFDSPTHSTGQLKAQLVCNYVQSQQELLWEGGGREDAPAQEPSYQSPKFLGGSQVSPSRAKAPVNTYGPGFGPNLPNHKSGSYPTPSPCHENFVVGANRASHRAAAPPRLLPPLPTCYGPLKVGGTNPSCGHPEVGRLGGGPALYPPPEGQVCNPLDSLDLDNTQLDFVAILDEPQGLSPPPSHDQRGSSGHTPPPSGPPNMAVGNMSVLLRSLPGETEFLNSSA

Tests used:
[1] = target: Flag-tagged STAT3 (signal transducer and activator of transcription 3) (not stated (a rat cDNA plasmid, pcDNA3-flag-ratSTAT3-WT, is named for Figure 4F)) (UniProt P52631); experiment: co-IP; 293T cells transfected with STAT3 overexpression plasmids with different tags, treated with IL-6 (20 ng/mL) and Ssb1 (or S3I-201) for 24 h before harvest; IP with a Flag antibody
[2] = target: STAT3, endogenous in HSC-T6 cells (rat (endogenous in HSC-T6)) (UniProt P52631); experiment: co-IP; endogenous proteins in lysates of HSC-T6 and LX-2 cells, IP-WB; HSC-T6 also treated with TGF-β1 and Ssb1 for 24 h
[3] = target: STAT3, endogenous in LX-2 cells (human (endogenous in LX-2)) (UniProt P40763); experiment: as above

Flag-tagged STAT3 (signal transducer and activator of transcription 3) (from UniProt P52631 1-770)
binding [1]: binds

Gli1 (glioma-associated oncogene-1), endogenous in HSC-T6 cells (from UniProt G3V6X8 1-1109)
binding [2]: binds

Gli1 (glioma-associated oncogene-1), endogenous in LX-2 cells (from UniProt P08151 1-1106)
binding [3]: binds
